Reference: PubChem BioAssay AID504467 (National Center for Advancing Translational Sciences (NCATS), 2011)
The whole screen tested about 330,000 compounds, of which about 7,700 (2.3%) were called active. Inconclusive means that the source gave no clear call. Such entries were picked first, then a sample of the others. Calls follow the shape of the dose curve; as a rule, active = well fitted inhibition curve with a large enough effect; inconclusive = small, poorly fitted or top-dose-only effect, or effect the other way; inactive = flat fitted curve, though single readings scatter. A potency beside an inconclusive call is a rough fit, not a confirmed value.
Potency is read from the fitted curve at half-maximal effect.

Experiment: qHTS screen for small molecules that inhibit ELG1-dependent DNA repair in human embryonic kidney (HEK293T) cells expressing luciferase-tagged ELG1; also: nearly all actives have a fitted effect of over 55% in size
Conditions: HEK293T ELG1-luciferase reporter, luminescence, 16 h, DNA damage induced by 5-fluorouridine; series mostly up to 46.1 µM
Method in brief: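 Cells (2,000 per well) received 5-fluorouridine plus test compound or DMSO and were incubated 16 hr at 37 °C, 5% CO2. Luciferase activity was read by luminescence 30 min after ONE-Glo addition; signal suppression marked inhibition of damage-induced ELG1 function.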
In the case of O=C(Nc1ccccc1Br)C(=O)N1CCCC1, the Potency is reported as inconclusive: 18.4 µM [activator, partial curve].
With O=C(c1ccc2ncsc2c1)N1CCN(c2nc3ccccc3s2)CC1 the Potency was inconclusive: 11.6 µM [inhibitor, partial curve, poor fit].
In the case of CC1=C(C(=O)OCC2CCCO2)C(c2cccc(C(F)(F)F)c2)C2=C(CC(c3ccco3)CC2=O)N1 (stereo not given), the Potency is reported as inconclusive: 23.1 µM [inhibitor, partial curve, poor fit].
For COc1ccc(S(=O)(=O)N2CCC(C(=O)Nc3ccc(F)cc3)CC2)c2cccnc12, the Potency was inconclusive: 29.1 µM [inhibitor, single point].
With O=C(Oc1nsnc1N1CCOCC1)c1ccccc1 the Potency was inconclusive: 29.1 µM [inhibitor, single point].
For Cc1ccc([N+](=O)[O-])cc1-c1ccc(/C=N/NC(=O)c2cc3c(ccc4ccccc43)o2)o1, the Potency was “inactive”.
For Nc1nc2c(s1)CC(c1ccccc1)CC2 (stereo not given), the Potency was “inactive”.
With Cc1cc(=O)oc2c(C)c(OC(C)C(=O)NCCN3CCOCC3)ccc12 (stereo not given) the Potency was inconclusive: 0.231 µM [activator, single point].
With CCOC(=O)c1ccc(NC(=O)Cn2nc(C)c3ccccc3c2=O)cc1 the Potency was “inactive”.
With Cc1ccc(S(=O)(=O)Nc2ccccc2C(=O)N2CCCCC2C)c(C)c1NS(C)(=O)=O (stereo not given) the Potency was “inactive”.
For Cc1ccc(NC(=O)C(C)N=C2NS(=O)(=O)c3ccccc32)cc1 (stereo not given), the Potency was inconclusive: 29.1 µM [activator, partial curve, poor fit].
With CC(C)c1onc(C(=O)N2CCN(Cc3ccccc3)CC2)c1[N+](=O)[O-] the Potency was “inactive”.
With Cn1nc(C(F)(F)F)c2cc(C(=O)Nc3ccc(F)cc3F)sc21 the Potency was inconclusive: 18.4 µM [inhibitor, single point].
In the case of CC(=O)Nc1ccc(/C=C(\C#N)C(=O)NC2CCCCC2C)cc1 (stereo not given), the Potency is reported as “inactive”.
With COc1cc(/C=N/NC(=O)c2cccc(C(=O)N/N=C/c3ccc(O)c(OC)c3)n2)ccc1O the Potency was “inactive”.
With COc1ccc(C)cc1NC(=O)CSc1nnc(CC(=O)Nc2cccc(C(F)(F)F)c2)n1C the Potency was inconclusive: 14.6 µM [inhibitor, partial curve].
With COc1ccc(NS(=O)(=O)CC(C)C)c(OC)c1 the Potency was “inactive”.
With COc1cccc(-c2cc(C(=O)N3C(C)CCCC3C)no2)c1 (stereo not given) the Potency was inconclusive: 25.9 µM [activator, partial curve, poor fit].
For CC1=CC2=NC(=O)/C(=C\c3ccc(-c4cccc(Cl)c4)o3)C(=N)N2O1, the Potency was inconclusive: 3.66 µM [inhibitor, partial curve, poor fit].
In the case of O=C(NC1CCCC1)C(c1ccccc1F)N(C(=O)Cc1cccs1)c1ccc2c(c1)OCCO2 (stereo not given), the Potency is reported as inconclusive: 29.1 µM [inhibitor, single point].
In the case of CN(C)c1ccnc(N(Cc2ccccc2)Cc2ccccc2)c1C#N, the Potency is reported as inconclusive: 6.51 µM [activator, partial curve, poor fit].
For Cc1ccc(C(=O)NCCNC(=O)COc2ccc(C)c(C)c2)cn1, the Potency was “inactive”.
In the case of CC(C)(C)c1nc2ccccc2c(=O)n1N1C(=O)c2ccccc2C1=O, the Potency is reported as inconclusive: 23.1 µM [inhibitor, partial curve, poor fit].
For CN(C)c1ccc(N2C(=NC(=O)C3CCCO3)SC3CS(=O)(=O)CC32)cc1 (stereo not given), the Potency was inconclusive: 16.4 µM [activator, single point].
In the case of O=C(COC(=O)/C=C/c1ccc2c(c1)OCO2)Nc1ccccc1, the Potency is reported as “inactive”.
For CCCCNC(=O)Nc1cc(C(F)(F)F)c[nH]c1=O, the Potency was “inactive”.
In the case of CCCc1cc(=O)[nH]c(SCC(=O)NC2CCCc3ccccc32)n1 (stereo not given), the Potency is reported as “inactive”.
In the case of CCN(C(=O)c1ccc(Cl)cc1[N+](=O)[O-])c1ccccc1C, the Potency is reported as “inactive”.
In the case of Nc1c(-c2cccc(Cl)c2)cnc2c(-c3ccccc3)cnn12, the Potency is reported as inconclusive: 4.61 µM [activator, full curve].
In the case of COc1ccc(CN(C(=S)Nc2ccccc2)C2CC(=O)N(c3ccc(Cl)cc3)C2=O)cc1 (stereo not given), the Potency is reported as inconclusive: 1.16 µM [activator, full curve].
With CCCCOC(=O)Cn1c(=O)n(CC(=O)OCCCC)c2ccccc21 the Potency was “inactive”.
In the case of CC1(c2nnc(Cc3ccccc3)o2)CC(c2cccc(F)c2)=NO1 (stereo not given), the Potency is reported as “inactive”.
For COc1ccc(NC(=O)c2cc(C)n(Cc3cccs3)c2C)cc1, the Potency was inconclusive: 3.26 µM [activator, partial curve].
In the case of CCN1CCN(Cc2ccc(NC(=O)c3cc(NC(=O)N4CCNC4=O)cc(OC)c3)cc2C(F)(F)F)CC1, the Potency is reported as inconclusive: 29.1 µM [inhibitor, single point].
With Cc1cccc(N(CC(=O)NCC2CCCO2)C(=O)CCC(=O)Nc2nccs2)c1 (stereo not given) the Potency was “inactive”.
In the case of Cc1ccc(/C=N/N2CCN(C3c4ccccc4-c4ccccc43)CC2)o1, the Potency is reported as “inactive”.
In the case of COc1ccccc1Nc1nc(N)nc(CSc2nccc(C)n2)n1, the Potency is reported as inconclusive: 23.1 µM [activator, partial curve, poor fit].
In the case of C#CCNC(=O)C1=C[C@@H](c2csc3ccccc23)C[C@@H](OCc2ccc(CO)cc2)O1, the Potency is reported as inconclusive: 20.6 µM [inhibitor, single point].
For Cn1nc(-c2ccc(C(=O)Nc3cccc(Cl)c3)cc2)c2ccccc2c1=O, the Potency was inconclusive: 16.4 µM [inhibitor, single point].
In the case of CC(C(=O)Nc1ccc(O)cc1)c1cccc(C(=O)c2ccccc2)c1 (stereo not given), the Potency is reported as active: 16.4 µM.
In the case of COc1ccc(Cc2nn3c(Cn4nnc5ccccc54)nnc3s2)cc1, the Potency is reported as inconclusive: 29.1 µM [inhibitor, single point].
With Cc1ccccc1COC[C@H](CC(C)C)N1CCN(C(=O)c2cccc(C(F)(F)F)c2)CCC1=O the Potency was inconclusive: 23.1 µM [inhibitor, partial curve, poor fit].
With O=C(COc1ccccc1)Nc1nnc(-c2ccc(Cl)cc2)o1 the Potency was “inactive”.
In the case of Cc1ccc(OCc2nnc(SCC(=O)Nc3ccc4c(c3)OCCO4)n2Cc2ccco2)cc1, the Potency is reported as inconclusive: 35.5 µM [inhibitor, single point].
For NC(=O)CC(NC(=O)c1ccccc1)c1ccc(NC2CCCC2)c([N+](=O)[O-])c1 (stereo not given), the Potency was inconclusive: 0.517 µM [inhibitor, single point].
